Measurements taken from PubChem BioAssay AID1347423 (Functional Genomics Laboratory (NCATS/FGL), 2020).
Out of some 52,000 sequences screened, about 210 (0.4%) were called active.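 Rule for the calls: active = gene whose silencing raises cell survival under the drug, median off-target-corrected z-score across its silencing RNAs 2 or more; inactive = the rest.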 This is one part of the list.

assay: Resistance to Poly (ADP-Ribose) Polymerase inhibitor: Gene Identification via Genome-wide siRNA Screen; conditions: mouse BRCA2 R2336H ES cells, olaparib, CellTiter-Glo viability; hits give high values
In short: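 Mouse BRCA2 R2336H ES cells were reverse-transfected with siRNA (20 nM final), treated at 48 h with 500 nM olaparib, and read by CellTiter-Glo after 72 h. Scores: MAD-based z per siRNA, median per gene, seed off-target correction.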

| Sequence | z-score |
| --- | --- |
| CGAUAUUUGGUGUGAAAUGTT against 1110020A09Rik | inactive: -1.68 |
| GGUGAUGCAGCAGAUCAUUTT against Nfyc | inactive: -1.82 |
| GGAUCCAAAGAGUAUUGGATT against Olfr521 | inactive: -0.988 |
| GCUUUCUUUUGCACUUGAATT against 1500010J02Rik | inactive: 3.39 |
| GGACCAGAAAAUUCACUUUTT against Gdap2 | inactive: -1.39 |
| GCCUAAUUAUAGUCACUCUTT against Olfr1089 | inactive: 0.424 |
| GGUCUGUGGAUUUAAACUUTT against Sestd1 | inactive: 0.415 |
| GGCAAAAUGCAUAGAGAUATT against Map4k5 | inactive: 0.78 |
| GGGUCCCGAUCCAUAAUUGTT against Itpka | inactive: 0.513 |
| GGCUGUGGAAUGACACCAATT against Sars2 | inactive: -0.232 |
| GGAAAUCAGCAAAGUAAAATT against Golga1 | inactive: -1.39 |
| GGAAUUGGGUUCUACAUGCTT against MGC27770 | inactive: -0.687 |
| GGUUUGCCACCUGUGUGUUTT against Rasgef1b | inactive: -0.862 |
| GCGUGAGAGAUACCGCCAUTT against Gnai2 | inactive: -0.0578 |
| GCCUAUCGAGGAGACACAUTT against Edil3 | inactive: -1.08 |
| GGUGGCCUUUCUUUGUUUATT against BC049762 | inactive: 0.805 |
| GGACCAUCUCUUAUGUCCATT against Olfr54 | inactive: 0.644 |
| GGAGAAUGUACAAAGGCUUTT against Slc7a13 | inactive: -0.894 |
| CCGUAGUUAUGAUACCAAUTT against Cyp3a25 | inactive: 0.166 |
| CCCUGUACCUAGCUCAAGATT against Ecel1 | inactive: 0.957 |
| GCAAGAUGGUAUCAGCAGATT against BC031781 | inactive: -1.16 |
| GGGAUAAACCUUCGCCAUATT against Fkrp | inactive: 0.202 |

Part of the list above, tab-delimited.
Sequence	z-score
GGAUCCAAAGAGUAUUGGATT against Olfr521	inactive: -0.988
GCUUUCUUUUGCACUUGAATT against 1500010J02Rik	inactive: 3.39

The list continues.

| Sequence | z-score |
| --- | --- |
| GCUGAUGUCUCAACCUAGATT against 9430065N20Rik | inactive: 1.04 |
| GGCGAUUCAAGGAGUUCCUTT against Mcm5 | inactive: -0.256 |
| GGGAACCAAACUGUCAUCUTT against MOR135-11 | inactive: 0.3 |
| GGCAUGGAAUAUGAUGUUATT against Nalp9b | inactive: -2.18 |
| GGUGAUGGAAAUAAACUACTT against BC003479 | inactive: -0.039 |
| GGUCACAGAAUCGGUUUCATT against 0610039D01Rik | inactive: -1.9 |
| CGAUGAUACAGUUUAUCUCTT against Pon2 | inactive: -0.303 |
| CCUAGAGUCUCAGGACUGUTT against MGI:1923902 | inactive: -0.361 |
| GGAUGAGGAUUUUGAGAACTT against Arhgef1 | inactive: 0.573 |
| GGAUCACUUGAUUGAUCCUTT against Slc15a3 | inactive: 0.391 |
| GGAAUCUCCAUUUGUAUUGTT against Calml3 | inactive: 0.172 |
| GGAGGAUCCACAUGAUGACTT against BC044804 | inactive: -0.604 |
| GGAAAAUGGAGAACUAAAGTT against Uxs1 | inactive: 0.148 |
| GCAAACUGCGCAGUUCUUGTT against Gad1 | inactive: 1.22 |
| GGUUUCAUCUGUUGGAAUUTT against Meis1 | inactive: -0.151 |
| GGAGAAAAAGCACCAAUGUTT against Plag1 | inactive: 0.906 |
| GGCAGCAGCAACAGCAGAATT against Slc36a3 | inactive: -0.805 |
| GCAAAUUCCAGUGAAAGCCTT against Papola | inactive: 0.939 |
| GCCAGUGUGACAUUUGGUATT against Eed | inactive: -0.563 |
| GGCAAAAACCCAGAGGACCTT against Mut | inactive: -0.0534 |
| GUGCACGAUCUGAUUGGUGTT against Pfn3 | inactive: -0.0523 |
| GGAUUUGACCAGUAUAAGUTT against Ptgs2 | inactive: -1.48 |

| Sequence | z-score |
| --- | --- |
| GGGCCAAUAUGUUUGAGUATT against 2310040C09Rik | inactive: 0.225 |
| GCAUGCACUUAAGAUUCUATT against 2310010M24Rik | inactive: -0.0447 |
| CCUAUAUGACAAAAGACAGTT against Glra2 | inactive: 0.145 |
| CCUGAGACCGAAUUUUACCTT against Cer1 | inactive: 0.209 |
| GGACAAUGAGAUUCUUCUCTT against 1810030J14Rik | inactive: -0.844 |
| GGAAAAUCUGGAGUUCUUCTT against Npas1 | inactive: 0.277 |
| GCCCAUAUGAUCACAGUCGTT against Ptpn2 | inactive: -1.03 |
| GGCAAUUGUACAGGAGAUUTT against BC026978 | inactive: -0.51 |
| GCCCAAAAAGGAAUUAAUUTT against Pak3 | inactive: 0.77 |
| GGAAAACGUGAUUUACACATT against Fcrh3 | inactive: -0.23 |
| GGAGGACCUGAAGCUUCAGTT against 0610039N19Rik | inactive: 0.473 |
| GGCCUGAGCUUUUUAACACTT against 2310046K01Rik | inactive: -0.0822 |
| GGAACACCAUCAAUAAACUTT against Tjp4 | inactive: 0.135 |
| CGCACCUUUCUUUGGAAUGTT against Rab1b | inactive: 0.348 |
| GGAAUCACAAGGUAUUUUCTT against Spo11 | inactive: 1.2 |
| GGCCAGCAGAUAUAUAGAGTT against D0H8S2298E | inactive: 0.603 |
| GCAGGUUUGUAUUGUAACUTT against Abi1 | inactive: -1.86 |
| GGCCAUGUUCCACACAUUATT against Grm1 | inactive: -0.583 |
| GCUAGCCAAAAAAAUCCGGTT against B430218L07Rik | inactive: 1.41 |
| GGAAGCUGUGGAGAAACUATT against Acox2 | inactive: 1.02 |
| GGUGCUGGAGUUGACCAGUTT against Cebpa | inactive: 0.696 |
| GCAUUCAUUGAUCAAUUCUTT against Zfp482 | inactive: -0.0688 |
